# Values quoted from earlier work, collected in US20070053975A1, “Ramipril formulation” (Selamine Limited, priority 2005, published 2007).
# Conditions: cited from earlier work
smiles,measurement,value
CN1C(=O)CN=C(c2ccccc2)c2cc(Cl)ccc21 [diazepam],Absorption in the presence of food,increased
